In all, about 33,000 sequences were measured (“E-score (-0.5 to 0.5)”: median about -0.0059, highest 2% from about 0.26 on). The list shows a part of the results.
Molecular target: T1, Cin5 (UniProt P40917)
T1 sequence: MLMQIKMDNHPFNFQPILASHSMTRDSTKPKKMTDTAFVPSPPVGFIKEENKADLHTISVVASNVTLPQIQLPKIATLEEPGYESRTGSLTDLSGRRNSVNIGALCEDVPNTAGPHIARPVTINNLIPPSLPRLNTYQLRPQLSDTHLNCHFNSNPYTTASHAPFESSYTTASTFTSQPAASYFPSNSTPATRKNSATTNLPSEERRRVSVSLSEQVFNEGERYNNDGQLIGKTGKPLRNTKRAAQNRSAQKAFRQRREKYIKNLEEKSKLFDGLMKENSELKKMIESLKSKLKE
Assay: PBM E-score (8-mer binding enrichment) (E-score (-0.5 to 0.5)); higher = stronger / more preferred TF binding
Conditions: protein concentration: 100 nM; construct: GST-full length
Method in brief: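 Detection of bound protein used fluorescent anti-GST, with scans normalised by masliner. The proteins were GST-tagged yeast transcription factors applied at about 100-200 nM to universal all-10-mer Agilent arrays made double-stranded by primer extension. Each ungapped eight-base word, pooled with its reverse complement, was scored with an E-score from the Universal PBM Analysis Suite.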

Sequence	PBM E-score
TCCGCGGA	0.226
CTCCGGAG	-0.056
ATACAAGG	-0.0112
ATGCATCA	0.287
AAACGCCC	-0.0126
CACAACTC	0.169
CAAACAAG	0.0817
GCATCTCA	0.137
GCAGCGCA	-0.0951
CTTTATCA	-0.0921
ACAGCATA	0.0813
AGTTTACC	-0.108
ACCGGCAA	-0.109
AACAGCCG	-0.0368
CAGATGAA	0.0352
GACGACAC	-0.0115
CAAAGATC	0.0133
AATGTCAG	0.0493
ACTCTCTA	-0.107
GCCGACGC	0.0517
CCTAGGCC	-0.141
CAAAGGGG	-0.0662
AGATTCAG	-0.0755
CGGAGTGA	0.0979
AGCCAGCG	-0.12

Sequence	PBM E-score
ACTCTCCT	-0.156
GCAGCGAA	-0.156
ATTCTAGG	-0.117
CTACAGAC	-0.21
AGGAACAG	-0.132
ACCCAGCA	-0.0912
ATCATCTA	0.16
ATCCTAAT	0.0491
CCTTGTTC	-0.102
CACCCAGA	0.0225
ATAGTGAC	0.0237
CATTGGCG	-0.214
ATGACGTA	0.338
ATGGTTGC	-0.0733
CAAGAACG	0.0383
GATGTGCA	0.0309
ATGTTTTC	0.121
ATCAAATA	0.242
ATACCTGC	-0.113
ATCGTAAT	0.385
CCATTCAA	0.0943
AGCTAATG	0.114
CGAGACAA	-0.0372
AGCTCACG	-0.0609
ACAAAGCA	0.179

Sequence	PBM E-score
ACTTAACA	0.0535
CGCTACAC	-0.139
CGCCGCGC	-0.137
CAGAAGCC	-0.164
TATCGCAA	0.175
GAGTGAAC	0.0563
AATGTGTA	0.0514
GGAGACAC	-0.0483
CACTATAC	0.0145
AGGGACGG	-0.304
AAAGCTAC	-0.0407
CACCAACG	-0.0803
CTCCTCTA	-0.279
TCGTCTCA	0.0753
CAGCAAAA	0.123
CCCCCGCG	-0.189
GCATTCGA	0.0901
CTCTTACC	0.156
AGCAGCCT	-0.148
AAATTTCG	0.0333
CCGTAAAA	0.002
GGGTAAAA	0.12
GACGGAAA	0.234
CTTGCCCA	-0.12
AGTCAGTG	0.0643

Nothing new here: an excerpt of the list.
Sequence	PBM E-score
CGCTACAC	-0.139
CGCCGCGC	-0.137
CAGAAGCC	-0.164
TATCGCAA	0.175
GAGTGAAC	0.0563
AATGTGTA	0.0514
GGAGACAC	-0.0483
CACTATAC	0.0145
AGGGACGG	-0.304
AAAGCTAC	-0.0407
CACCAACG	-0.0803
CTCCTCTA	-0.279
TCGTCTCA	0.0753
CAGCAAAA	0.123
CCCCCGCG	-0.189
GCATTCGA	0.0901
CTCTTACC	0.156
AGCAGCCT	-0.148
AAATTTCG	0.0333

More records follow.

Sequence	PBM E-score
AGGAAACC	-0.035
ACACGGGG	-0.144
AATGAGAG	-0.00716
AACACTGT	-0.0444
ATTGGCCC	-0.293
CCGCGGAC	0.104
CACCAGCG	-0.0689
AACTTAAA	-0.00071
ATACTACA	0.285
AACGTTTC	-0.0321
CAGTAAAG	0.0392
CGCAGAAA	0.0572
GGTAGTGA	-0.056
GGACGACA	0.172
ATCCAAAA	0.0376
GCTTCAGA	-0.114
CTCATGAG	0.012
GAACTAGC	-0.0823
CCATAAGA	0.118
AGCGGGGC	-0.161
AGCGAATG	-0.0883
ACCATACG	0.1

From the supplement of paper PMC3334620
